According to patent US5118669A (Hitachi Chemical Co., Ltd., priority 1989, dated 1992):
HELM strings list residues between dots; [ac] is acetyl, [am] amide, other brackets name non-standard units. *: point of attachment. Cbz = O=C(OCc1ccccc1)*; Boc = CC(C)(C)OC(=O)*; OBn = c1ccc(CO*)cc1

Test: general procedure: solution-phase peptide synthesis; DCC/HOBt
Settings: coupling step

Substance	step yield [%]
Boc-D(OBn)SD(OBn)GK(Cbz)-OBn	45.6
Boc-SD(OBn)GK(Cbz)-OBn	52
Cbz-AD(OBn)SD(OBn)GK(Cbz)-OBn	63.6
Cbz-D(OBn)SD(OBn)GK(Cbz)-OBn	31
Cbz-SD(OBn)GK(Cbz)-OBn	43

Same assay, conditions: late stage modification step

Substance	step yield [%]
H Ser-Asp-Gly-Lys-OH (SDGK; printed: Ser-Asp-Gly-Lys-)	32
PEPTIDE1{A.D.S.D.G.K}$$$$V2.0	40
PEPTIDE1{D.S.D.G.K}$$$$V2.0	52.3
